# Data published in PubChem BioAssay AID445 (National Center for Advancing Translational Sciences (NCATS), 2006).
# The list shows a part of the results. Shown are side measurements of this screen, not its main read-out; they come without a call. Compounds called inactive in the main read-out are mostly missing here. Potencies come from curve fits of mixed quality, noted in brackets.
# Assay: IkB Signaling
# Details: ABC-DLBCL IkBa-CBG/CBR dual luciferase ratio (green luciferase fused to IkBa over red control in OCI-Ly3 lymphoma cells), 4 h; measured here: control luc red channel unless noted
# In short: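 Curves were fitted separately to fusion (green), unfused (red) and ratio luminescence, then classed by r2, magnitude and activity. Cells: OCI-Ly3, 4 h compound plus doxycycline at 37C; 10 uM MG-132 defined full response.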
row,Structure (SMILES),AC50
1,COC(=O)c1ccccc1NC(=O)C1(c2cccs2)CCOCC1,"3.16 µM [rising, full curve]"
2,Cc1cccc(CNC(=O)CN2C(=O)C3CCCCN3c3ccc(C(=O)N4CCCC4)cc32)c1 (centres undefined),"6.31 µM [falling, full curve]"
3,Cc1ccc(-c2nnc(Nc3ccc(Cl)c(Cl)c3)c3ccccc23)cc1S(=O)(=O)N(C)C,"0.631 µM [falling, full curve]"
4,COc1ccc(CCNS(=O)(=O)c2ccc(F)c(C(=O)Nc3ccc(Cl)cc3)c2)cc1OC,"25.1 µM [falling, partial curve]"
5,Cc1ccc(C(=O)N2CCN(c3ccc(F)cc3)CC2)cc1NC(=O)c1nsc2ccccc12,"31.6 µM [falling, partial curve]"
6,CCn1c(C(=O)NCc2ccc(OC)cc2)cc2sc(Cl)cc21,"31.6 µM [falling, partial curve]"
7,O=C(CCCn1c(=S)[nH]c2cc3c(cc2c1=O)OCO3)N1CCN(c2ccc(F)cc2)CC1,"7.94 µM [falling, partial curve]"
8,CCn1cc(C(=O)N2CCN(c3ccccc3)CC2)c(=O)c2cc(S(=O)(=O)N3CCCC3)ccc21,"10 µM [falling, partial curve]"
9,O=C(CSc1nnc(-c2ccccc2)o1)c1nnc(-c2ccccc2)o1,"15.8 µM [falling, partial curve]"
10,CCOc1ccccc1Nc1nc(-c2ccc(C)cc2)c(CC(=O)O)s1,"15.8 µM [falling, partial curve]"
11,COc1cccc(CNC(=O)CN2C(=O)N(c3c(C)cccc3C)S(=O)(=O)c3ccccc32)c1OC,"31.6 µM [falling, single point]"
12,COc1ccc(OC)c(NC(=O)C(C)n2nc(C)c3c(C)n(-c4ccccc4)nc3c2=O)c1 (centres undefined),"25.1 µM [falling, single point]"
13,COc1ccc2c(c1)CCc1c(C(=O)Nc3c(C)nn(Cc4ccc(Cl)cc4)c3C)noc1-2,"6.31 µM [falling, full curve]"
14,CC(=O)c1cccc(NC(=O)Cn2c(=O)oc3cc(S(=O)(=O)NC4CCCC4)ccc32)c1,"39.8 µM [falling, single point]"
15,CC(=O)c1ccc(Nc2nc3ccccc3nc2-n2nc(C)cc2C)cc1,"3.16 µM [falling, full curve]"
16,CC(=O)N1CCN(c2nc3c(C)ccc(Cl)c3s2)CC1,"2 µM [rising, partial curve]"
17,COc1cccc(NC(=O)CSc2nccn2Cc2ccc3c(c2)OCO3)c1,"31.6 µM [falling, single point]"
18,CC1=C(C(=O)OCc2ccc3c(c2)OCO3)C(c2ccccc2)NC(=O)N1 (centres undefined),"12.6 µM [falling, partial curve]"
19,C=CCc1ccccc1OCCn1c(C2CC(=O)N(Cc3ccc(F)cc3)C2)nc2ccccc21 (centres undefined),"31.6 µM [falling, single point]"
20,Cc1ccc2nc(-c3cccc(Cl)c3)c(Nc3ccc4c(c3)OCO4)n2c1,"0.631 µM [falling, full curve]"

# No new results follow: entries from further up.
row,Structure (SMILES),AC50
2,Cc1cccc(CNC(=O)CN2C(=O)C3CCCCN3c3ccc(C(=O)N4CCCC4)cc32)c1 (centres undefined),"6.31 µM [falling, full curve]"
3,Cc1ccc(-c2nnc(Nc3ccc(Cl)c(Cl)c3)c3ccccc23)cc1S(=O)(=O)N(C)C,"0.631 µM [falling, full curve]"

# (cont.)

row,Structure (SMILES),AC50
1,Cc1ccc(C)c(NC(=O)N2CCc3cc(S(=O)(=O)N4CCC(C)CC4)ccc32)c1,"15.8 µM [falling, partial curve]"
2,COc1ccccc1CCNC(=O)C(=O)NCC(c1cccs1)S(=O)(=O)c1ccc(F)cc1 (centres undefined),"31.6 µM [falling, single point]"
3,CCc1ccc(S(=O)(=O)c2nnn3c2nc(NCc2cccc(OC)c2)c2cc(Cl)ccc23)cc1,"15.8 µM [falling, partial curve]"
4,O=C(Nc1cccc(-c2nc3ccccc3[nH]2)c1)c1ccccc1F,"15.8 µM [falling, partial curve]"
5,COc1ccccc1NC(=O)Cn1cc(C(=O)c2ccncc2)c(=O)c2cc(C)ccc21,"7.94 µM [falling, partial curve]"
6,CC1=C(c2ccc(C)c(C)c2)S(=O)(=O)N=C1N1CCC(C(=O)Nc2ccc(Cl)cc2)CC1,"39.8 µM [falling, single point]"
7,COc1cccc(-c2cc(C(=O)Nc3c(C)nn(Cc4ccccc4)c3C)no2)c1,"15.8 µM [falling, partial curve]"
8,CCc1ccc(-c2nc(SCC(=O)NCC3CCCO3)c(-c3ccc(F)cc3)[nH]2)cc1 (centres undefined),"10 µM [falling, partial curve]"
9,COc1ccc(-c2nn(CC(=O)NCc3ccccc3)c3c2cnc2ccc(F)cc23)cc1,"0.1 µM [rising, full curve]"
10,O=C(Cn1c(=O)nc(-c2ccccc2F)c2cc(Cl)ccc21)Nc1ccccc1C(F)(F)F,"20 µM [falling, partial curve]"
11,Cc1ccc(-c2nc3nc(C)cc(N4CCN(c5cccc(C)c5)C(C)C4)n3n2)cc1 (centres undefined),"39.8 µM [falling, single point]"
12,COC(=O)c1ccc(CSc2ccc3nnc(-c4cccc(F)c4)n3n2)o1,"3.98 µM [falling, partial curve]"
13,O=C(NCc1cccs1)c1nn(-c2ccccc2F)nc1CO,"15.8 µM [falling, partial curve]"
14,CCCCNC(=O)Cn1ncc2c(C)n(Cc3cccc(Cl)c3)c(C)c2c1=O,"20 µM [falling, single point]"
15,COc1ccccc1-n1c(SCC(=O)N2CCCCC2)nnc1-c1ccccc1O,"20 µM [falling, partial curve, poor fit]"
16,COc1ccc(NC(=O)c2cc(S(=O)(=O)N3CCCCC3)cn2C)cc1Cl,"0.00794 µM [falling, full curve, poor fit]"
17,O=C(Nc1ccc(S(=O)(=O)N2CCCCC2c2cccnc2)cc1)c1ccc(F)cc1 (centres undefined),"39.8 µM [falling, partial curve, poor fit]"
18,CCc1nnc2c3ccccc3nc(Nc3ccc(F)c(Cl)c3)n12,"0.1 µM [rising, full curve]"
19,Cc1cccc(N(C)C(=O)c2cc(S(=O)(=O)N3CCCCC3)c[nH]2)c1,"39.8 µM [falling, single point]"
